Measurements published in US20110081316A1, “PYRAZOLE INHIBITORS OF PHOSPHATIDYLINOSITOL 3-KINASE” (VERTEX PHARMACEUTICALS INCORPORATED, priority 2009, published 2011).
Some of these results come from one statement about several compounds together.

Chains of the proteins cited; added tags and fusions are not shown.
UniProt P48736, whole entry, species assumed: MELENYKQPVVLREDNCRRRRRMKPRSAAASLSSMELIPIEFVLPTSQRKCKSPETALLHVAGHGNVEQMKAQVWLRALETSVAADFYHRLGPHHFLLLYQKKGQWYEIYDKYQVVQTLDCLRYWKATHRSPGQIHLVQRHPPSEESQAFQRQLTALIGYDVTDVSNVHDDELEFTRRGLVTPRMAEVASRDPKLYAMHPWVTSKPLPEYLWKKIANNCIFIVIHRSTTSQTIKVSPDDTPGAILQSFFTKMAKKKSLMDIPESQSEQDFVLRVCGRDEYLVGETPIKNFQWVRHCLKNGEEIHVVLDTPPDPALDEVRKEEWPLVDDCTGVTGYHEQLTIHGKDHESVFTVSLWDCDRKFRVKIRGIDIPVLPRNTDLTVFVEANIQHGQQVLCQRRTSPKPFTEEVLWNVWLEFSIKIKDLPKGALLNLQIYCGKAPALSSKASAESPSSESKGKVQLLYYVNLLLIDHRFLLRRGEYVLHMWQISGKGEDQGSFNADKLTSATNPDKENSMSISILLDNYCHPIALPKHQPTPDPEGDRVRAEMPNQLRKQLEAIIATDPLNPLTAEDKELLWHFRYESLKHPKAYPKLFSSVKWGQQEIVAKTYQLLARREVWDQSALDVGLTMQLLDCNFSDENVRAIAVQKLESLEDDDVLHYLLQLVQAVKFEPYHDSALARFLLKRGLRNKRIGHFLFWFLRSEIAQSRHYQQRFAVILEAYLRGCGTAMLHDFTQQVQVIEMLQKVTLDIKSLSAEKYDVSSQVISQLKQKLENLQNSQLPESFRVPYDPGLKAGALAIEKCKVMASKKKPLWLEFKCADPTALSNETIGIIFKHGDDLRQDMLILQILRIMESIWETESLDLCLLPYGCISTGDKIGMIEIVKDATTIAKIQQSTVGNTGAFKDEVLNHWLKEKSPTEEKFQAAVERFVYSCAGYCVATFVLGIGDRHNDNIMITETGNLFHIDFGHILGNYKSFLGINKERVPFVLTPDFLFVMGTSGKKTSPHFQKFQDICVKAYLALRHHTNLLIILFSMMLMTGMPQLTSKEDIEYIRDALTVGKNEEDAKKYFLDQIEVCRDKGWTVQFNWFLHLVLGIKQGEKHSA

Molecular target: PI3K-gamma (Homo sapiens, UniProt P48736)
Assay: PI3K Inhibition Assay (33P-ATP, PI(4,5)P2 substrate, filter plate scintillation counting)
Type: biochemical
Conditions: 2 nM enzyme, 3 μM ATP, 30 μM PI(4,5)P2, 30 min at 25° C.; competitive tight binding Ki fit
Method: Using a Biomek FX from Beckman Coulter, 1.5 μL of each of ten 2.5-fold serial dilutions of a compound of the invention in 100% DMSO was added to an individual well (hereafter, “test well”) in a 96 well polystyrene plate [Corning, Costar Item No. 3697]. One test well also contained 1.5 μL of DMSO with no compound. […] Using a Titertek Multidrop, 50 μL of Reaction Mix [100 mM HEPES pH 7.5, 50 mM NaCl, 10 mM DTT, 0.2 mg/mL BSA, 60 μM phosphatidylinositol(4,5)bisphosphate diC16 (PI(4,5)P2; Avanti Polar Lipids, Cat. No. 840046P) and PI3K isoform of interest (see Table 3 for isoform concentrations)] was added to each well. To initiate the reaction, 50 μL of ATP Mix [20 mM MgCl2, 6 μM ATP (100 μCi/μmmole ^33P-ATP)] was added each well, followed by incubating the wells for 30 min. at 25° C. Final concentrations in each well were 50 mM HEPES 7.5, 10 mM MgCl2, 25 mM NaCl, 5 mM DTT, 0.1 mg/mL BSA, 30 μM PI(4,5)P2, 3 μM ATP, and the PI3K isoform of interest (see Table 3). Final compound concentrations in each well ranged from 10 μM to 1 nM. [table] After incubation, the reactions in each well were quenched by addition of 50 μL of stop solution [30% TCA/Water, 10 mM ATP]. Each quenched reaction mixture was then transferred to a 96 well glass fiber filter plate [Corning, Costar Item No. 3511]. The plate was vacuum-filtered and washed three times with 150 μL of 5% TCA/water in a modified Bio-Tek Instruments ELX-405 Auto Plate Washer. 50 μL of scintillation fluid was added to each well and the plate read on a Perkin-Elmer TopCount™ NXT liquid scintillation counter to obtain ^33P-counts representing inhibition values. The value for the background well was subtracted from the value obtained for each test well and the data were fit to the competitive tight binding Ki equation described by Morrison and Stone, Comments Mol. Cell. Biophys. 2: 347-368, 1985.

Row | SMILES | Ki [µM]
1 | CC(=O)Nc1cc(C#Cc2cccnc2)n(C)n1 [Compound 1, N-(1-methyl-5-(pyridin-3-ylethynyl)-1H-pyrazol-3-yl)acetamide] | < 2
2 | Cn1nc(NC(=O)NCCOCC2CC2)cc1C#Cc1cccnc1 [Compound 2] | < 2
3 | Cn1nc(NC(=O)NCCc2cn(CC(F)F)cn2)cc1C#Cc1cccnc1 [Compound 3] | < 2
4 | CCCOCCNC(=O)Nc1cc(C#Cc2cccnc2)n(C)n1 [Compound 4] | < 2
5 | COc1cc(C#Cc2cc(NC(=O)NCCOCC3CC3)nn2C)cnc1OC [Compound 5, 1-(2-(cyclopropylmethoxy)ethyl)-3-(5-((5,6-dimethoxypyridin-3-yl)ethynyl)-1-methyl-1H-pyrazol-3-yl)urea] | < 2
6 | COc1cncc(C#Cc2cc(NC(=O)NCCOCC3CC3)nn2C)c1 [Compound 6] | < 2
7 | Cn1nc(NC(=O)NCCOCC2CC2)cc1C#Cc1ccc(N)nc1 [Compound 7] | < 2
8 | Cn1nc(NC(=O)NCCOCC2CC2)cc1C#Cc1cccnc1Cl [Compound 8] | < 2
9 | Cn1nc(NC(=O)NCCOCC2CC2)cc1C#Cc1ccc2nccnc2c1 [Compound 9] | < 2
10 | C[C@H](CNC(=O)Nc1cc(C#Cc2ccc(N)nc2)n(C)n1)OCC1CC1 [Compound 10] | < 2
11 | COc1cc(C#Cc2cc(NC(=O)NC[C@@H](C)OCC3CC3)nn2C)cnc1OC [Compound 11] | < 2
12 | C[C@@H](CNC(=O)Nc1cc(C#Cc2ccc3nccnc3c2)n(C)n1)OCC1CC1 [Compound 12] | < 2
13 | COc1cc(C#Cc2cc(NC(=O)NC[C@H](C)OCC3CC3)nn2C)cnc1OC [Compound 14] | < 2
14 | C[C@@H](CNC(=O)Nc1cc(C#Cc2cnc3ccccc3c2)n(C)n1)OCC1CC1 [Compound 15] | < 2
